In patent US20140227262A1, “PD-1 Antagonists and Methods for Treating Infectious Disease” (AMPLIMMUNE, INC., priority 2008, published 2014):
Numbering of substitutions follows the chain as printed. Names and notes keep the numbering of the source. Results are given in words; binding and its absence hold for the method and conditions named. Some binding calls cover weakened binding; strength is not graded here.

Amino acid sequences for entries named in this document (tags omitted). Residues count along the entry.
UniProt Q02242, residues 25-167: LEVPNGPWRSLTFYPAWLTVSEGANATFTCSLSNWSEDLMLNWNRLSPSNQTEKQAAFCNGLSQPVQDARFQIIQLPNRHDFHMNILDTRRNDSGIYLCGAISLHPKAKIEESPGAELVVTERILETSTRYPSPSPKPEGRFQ

B1: wild type murine B7-DC-Ig (Fc fusion)
chain: LFTVTAPKEVYTVDVGSSVSLECDFDRRECTELEGIRASLQKVENDTSLQSERATLLEEQLPLGKALFHIPSVQVRDSGQYRCLVICGAAWDYKYLTVKVKASYMRIDTRILEVPGTGEVQLTCQARGYPLAEVSWQNVSVPANTSHIRTPEGLYQVTSVLRLKPQPSRNFSCMFWNAHMKELTSAIIDPLSRMEPKVPRTWEPRGPTIKPCPPCKCPAPNLLGGPSVFIFPPKIKDVLMISLSPIVTCVVVDVSEDDPDVQISWFVNNVEVHTAQTQTHREDYNSTLRVVSALPIQHQDWMSGKEFKCKVNNKDLPAPIERTISKPKGSVRAPQVYVLPPPEEEMTKKQVTLTCMVTDFMPEDIYVEWTNNGKTELNYKNTEPVLDSDGSYFMYSKLRVEKKNWVERNSYSCSVVHEGLHNHHTTKSFSRTPGK
B2: murine B7-DC-Ig with the D111S substitution (Fc fusion)
chain: B1 chain with D92S
B3: murine B7-DC-Ig with the K113S substitution (Fc fusion)
chain: B1 chain with K94S

The binders below were run against recombinant mouse PD-1/Fc (R&D Systems) (mouse) (UniProt Q02242) (assay: ELISA, plate coated with recombinant mouse PD-1/Fc).

binding, binds:
B1
B2
B3
